Among the data in patent publication EP2061494B1 are binding values, retold here.

Protein sequences, listed by entry. Tags and fused reporters are not part of them. Residues count along the entry.
UniProt P41240, residues 2-450: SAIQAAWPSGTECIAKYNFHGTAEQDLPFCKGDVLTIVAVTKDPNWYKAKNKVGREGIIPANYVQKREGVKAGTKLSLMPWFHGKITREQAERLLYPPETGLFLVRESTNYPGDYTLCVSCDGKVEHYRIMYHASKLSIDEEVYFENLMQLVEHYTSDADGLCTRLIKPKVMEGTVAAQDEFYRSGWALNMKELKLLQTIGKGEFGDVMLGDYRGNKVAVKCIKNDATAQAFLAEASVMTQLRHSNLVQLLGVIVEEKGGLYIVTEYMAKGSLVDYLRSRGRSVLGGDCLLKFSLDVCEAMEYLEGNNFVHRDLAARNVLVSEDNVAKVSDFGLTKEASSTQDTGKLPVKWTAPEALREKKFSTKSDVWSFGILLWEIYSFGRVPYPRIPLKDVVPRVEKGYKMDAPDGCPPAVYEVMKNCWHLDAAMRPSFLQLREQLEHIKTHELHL

No constants are given. Whether binding was seen depends on the method and setting. Binding seen in cells or lysates may run through a third protein. Some binding calls cover weakened binding; strength is not graded here.

The target of this assay is T1, p140Cap (endogenous protein of MCF7 human breast carcinoma cell extracts) (human) (UniProt Q9C0H9).
T1 sequence (looked up): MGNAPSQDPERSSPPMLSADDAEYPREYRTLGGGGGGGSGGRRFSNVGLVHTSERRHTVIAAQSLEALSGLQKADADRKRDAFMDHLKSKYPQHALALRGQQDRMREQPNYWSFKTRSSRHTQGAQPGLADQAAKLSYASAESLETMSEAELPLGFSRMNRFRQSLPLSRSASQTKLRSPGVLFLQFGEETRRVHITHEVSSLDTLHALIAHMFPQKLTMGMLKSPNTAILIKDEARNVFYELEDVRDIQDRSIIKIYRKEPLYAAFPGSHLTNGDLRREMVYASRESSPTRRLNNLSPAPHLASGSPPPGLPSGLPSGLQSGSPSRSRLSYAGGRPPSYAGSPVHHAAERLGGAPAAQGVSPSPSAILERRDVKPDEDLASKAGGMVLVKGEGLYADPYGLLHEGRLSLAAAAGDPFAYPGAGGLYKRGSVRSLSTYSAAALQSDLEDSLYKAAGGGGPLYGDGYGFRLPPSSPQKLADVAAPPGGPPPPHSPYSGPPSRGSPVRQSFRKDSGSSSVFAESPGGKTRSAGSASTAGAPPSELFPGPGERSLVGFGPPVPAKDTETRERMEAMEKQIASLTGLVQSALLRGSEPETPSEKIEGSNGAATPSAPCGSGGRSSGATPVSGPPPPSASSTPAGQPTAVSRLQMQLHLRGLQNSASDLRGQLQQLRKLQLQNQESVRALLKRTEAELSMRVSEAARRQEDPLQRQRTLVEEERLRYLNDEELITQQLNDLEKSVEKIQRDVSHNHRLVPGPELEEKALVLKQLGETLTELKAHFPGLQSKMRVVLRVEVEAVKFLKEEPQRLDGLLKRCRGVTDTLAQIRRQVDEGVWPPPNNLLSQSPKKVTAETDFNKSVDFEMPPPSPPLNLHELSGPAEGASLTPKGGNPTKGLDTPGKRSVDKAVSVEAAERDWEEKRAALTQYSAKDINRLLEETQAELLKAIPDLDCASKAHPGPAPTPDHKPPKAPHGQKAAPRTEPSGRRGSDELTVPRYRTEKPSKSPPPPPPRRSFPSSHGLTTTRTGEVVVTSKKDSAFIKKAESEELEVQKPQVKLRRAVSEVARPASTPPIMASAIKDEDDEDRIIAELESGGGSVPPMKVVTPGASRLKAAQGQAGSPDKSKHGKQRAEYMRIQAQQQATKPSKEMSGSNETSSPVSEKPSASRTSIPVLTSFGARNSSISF
Nature of the assay: reciprocal co-immunoprecipitation from MCF7 extracts, western blot. In general terms: In western blotting, separated proteins are transferred to a membrane and probed.

“C-terminal Src kinase (Csk), endogenous protein of MCF7 cells (from UniProt P41240 2-450) (enzyme)”: the binding result is recorded as “binds”.
